The test deals with T1, Interferon-induced protein with tetratricopeptide repeats 3 (human (endogenous in L3.6pl and TBO368)) (UniProt O14879).
T1 sequence: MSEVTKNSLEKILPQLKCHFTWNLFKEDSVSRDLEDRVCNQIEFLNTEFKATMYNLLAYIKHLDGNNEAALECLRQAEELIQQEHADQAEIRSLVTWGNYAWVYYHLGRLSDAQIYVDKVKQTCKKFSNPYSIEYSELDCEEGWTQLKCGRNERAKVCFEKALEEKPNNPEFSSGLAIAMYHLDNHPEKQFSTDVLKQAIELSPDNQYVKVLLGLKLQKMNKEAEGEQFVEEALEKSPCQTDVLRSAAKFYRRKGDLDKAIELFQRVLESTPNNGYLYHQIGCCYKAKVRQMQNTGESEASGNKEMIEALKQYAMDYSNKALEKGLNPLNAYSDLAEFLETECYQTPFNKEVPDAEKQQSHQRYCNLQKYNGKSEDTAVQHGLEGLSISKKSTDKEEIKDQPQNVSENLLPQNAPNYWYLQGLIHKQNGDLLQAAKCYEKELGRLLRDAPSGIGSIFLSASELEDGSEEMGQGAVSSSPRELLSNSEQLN
The test is described as follows: affinity purification with mass spectrometry; immunoprecipitation with anti-IFIT3 antibody (normal IgG control) from lysates of L3.6pl and TBO368 cells treated with gemcitabine; IP lysis buffer 25 mM Tris pH 7.4, 150 mM NaCl, 1 mM EDTA, 0.5% NP-40, 5% glycerol; protein A-Dynabeads; nano LC-MS.

Chains of the proteins cited; added tags and fusions are not shown.
UniProt P22061: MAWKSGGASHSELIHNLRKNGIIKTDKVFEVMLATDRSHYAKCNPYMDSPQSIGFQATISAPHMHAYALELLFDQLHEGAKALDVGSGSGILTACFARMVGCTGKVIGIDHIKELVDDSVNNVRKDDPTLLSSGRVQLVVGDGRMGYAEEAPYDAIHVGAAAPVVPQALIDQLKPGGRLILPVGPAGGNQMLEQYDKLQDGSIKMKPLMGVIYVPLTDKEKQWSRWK

Drawing on publication PMC7330856, this text covers binding for two molecules.

These are yes or no findings as the source states them, for the method shown. Binding seen in cells or lysates may run through a third protein. Here binding means that the protein was enriched with, or labelled near, the bait; the list need not be complete.

As to PCMT1 (from UniProt P22061 1-227), the binding entry is given as “binds”.

B1: TM9SF3 (protein, UniProt Q9HD45 29-589)
chain: DEHEHTYQDKEEVVLWMNTVGPYHNRQETYKYFSLPFCVGSKKSISHYHETLGEALQGVELEFSGLDIKFKDDVMPATYCEIDLDKEKRDAFVYAIKNHYWYQMYIDDLPIWGIVGEADENGEDYYLWTYKKLEIGFNGNRIVDVNLTSEGKVKLVPNTKIQMSYSVKWKKSDVKFEDRFDKYLDPSFFQHRIHWFSIFNSFMMVIFLVGLVSMILMRTLRKDYARYSKEEEMDDMDRDLGDEYGWKQVHGDVFRPSSHPLIFSSLIGSGCQIFAVSLIVIIVAMIEDLYTERGSMLSTAIFVYAATSPVNGYFGGSLYARQGGRRWIKQMFIGAFLIPAMVCGTAFFINFIAIYYHASRAIPFGTMVAVCCICFFVILPLNLVGTILGRNLSGQPNFPCRVNAVPRPIPEKKWFMEPAVIVCLGGILPFGSIFIEMYFIFTSFWAYKIYYVYGFMMLVLVILCIVTVCVTIVCTYFLLNAEDYRWQWTSFLSAASTAIYVYMYSFYYYFFKTKMYGLFQTSFYFGYMAVFSTALGIMCGAIGYMGTSAFVRKIYTNVKID
As for B1, the binding result is recorded as “binds”.
